# Data from the supplement of paper PMC10735217.
# Counter-ions that a name gives are not always drawn. Some of the results follow. This data set is noisy: repeats of one test often differ as much as different tests do.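 The human kidney-derived cells carry a stably integrated construct of eight TEAD-binding elements driving luciferase, read by luminescence in a drug-repurposing library screen. A compound counts as a hit when its signal is more than five robust Z scores above the plate mean.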
# Tested on: HEK293A TEAD-LUC reporter
# Assay: TEAD-luciferase reporter activity (YAP activation), robust Z score vs plate; higher = stronger YAP/TEAD activation
# Details: 24 h
SMILES,TEAD-luciferase reporter activity (compound concentration: 200 nM),TEAD-luciferase reporter activity (compound concentration: 2 uM),TEAD-luciferase reporter activity (compound concentration: 10 uM)
C/C=C(/C)C(=O)O[C@H]1C(C)=C[C@]23C(=O)[C@@H](C=C(CO)[C@@H](O)[C@]12O)[C@H]1[C@@H](C[C@H]3C)C1(C)C [Ingenol mebutate],active: 14.5,active: 24.9,active: 32.9
N=C(N)NCCCCCCCC(=O)N[C@@H](CC(=O)O)C(=O)N[C@@H](Cc1ccccc1)C(=O)O,inactive: 1.35,inactive: -1.57,inactive: -0.505
C/C=C/C1=C(C(=O)O)N2C(=O)[C@@H](NC(=O)[C@H](N)c3ccc(O)cc3)[C@H]2SC1 [Cefprozil],inactive: -1.79,,inactive: -0.577
C/C=C/C1=C(C(=O)O)N2C(=O)[C@@H](NC(=O)[C@H](N)c3ccc(O)cc3)[C@H]2SC1 [cefprozil],,inactive: 0.409,
Cc1cc(C#N)cc(C)c1Oc1nc(Nc2ccc(C#N)cc2)nc2[nH]ccc12,inactive: -0.716,inactive: -1.79,inactive: 4.53
CC(Oc1ccccc1)C(=O)NC1C(=O)N2C1SC(C)(C)C2C(=O)O (stereo not given) [Phenethicillin potassium],inactive: 3.94,inactive: -1.09,inactive: -0.365
FC(F)(F)C(C(F)(F)F)(C(F)(F)F)C1(F)C(F)(F)C(F)(F)C(F)(F)C(F)(F)C1(F)F [Oxycyte],inactive: -1.4,inactive: -0.0639,inactive: 0.928
O=S(=O)(c1nc(-c2ccccc2)c(-c2cccc(F)c2)[nH]1)C(F)(F)C(F)F,inactive: -1.3,inactive: -2.06,inactive: 0.236
O=C1CCCN1c1ccc(Oc2ccc3c(c2)CCN(C2CCC2)CC3)nc1,inactive: -0.54,inactive: -0.822,inactive: 1.36
CCc1nc2c(C)cc(-c3cn4c(n3)CCCC4)cc2n1Cc1ccc(-c2ccccc2C(=O)O)cc1,inactive: -1.88,inactive: -1.54,inactive: -0.606
O=C(NC1CCCN(c2nc3ncccc3o2)C1)c1ccc(F)cc1 (stereo not given),inactive: -1.65,,inactive: -0.0692
CC[C@H](C)[C@H](NC(=O)[C@H](CCCNC(=N)N)NC(=O)[C@H](CC(C)C)NC(=O)[C@H](CC(N)=O)NC(=O)[C@H](CCC(=O)O)NC(=O)[C@@H](N)CCCNC(=N)N)C(=O)N[C@@H](C)C(=O)N[C@@H](CC(C)C)C(=O)N[C@@H](CCCNC(=N)N)C(=O)N[C@@H](Cc1ccc(O)cc1)C(=O)O,inactive: -1.42,,inactive: 0.615
C=CCN1C=CC(=O)C(=O)C1C (stereo not given),inactive: 3.32,inactive: -1.39,inactive: 0.138
Cc1cc2nc3c(=O)[nH]c(=O)nc-3n(CC(O)C(O)C(O)COP(=O)(O)O)c2cc1C (stereo not given),inactive: -0.315,,inactive: -0.628
O=C(NC1CCN(Cc2ccncc2)CC1)c1cc2cc(OC3CCN(c4ccc(C(F)(F)F)cc4)CC3)ccc2o1,inactive: 0.227,inactive: -0.685,inactive: -2.02
COc1cc2c(=O)c(-c3ccc(O)cc3)coc2cc1O [Glycitein],active: 5.86,inactive: -0.588,inactive: -0.353
O=S(=O)(Nc1nnc2cc(OC[C@]34C[C@H]5C[C@H](C[C@H](C5)C3)C4)c(C3CC3)cn12)C1CC1,inactive: -1.32,inactive: -1.06,inactive: -1.21
CC(=O)Oc1cc(C(C)C)c(OCCN(C)C)cc1C [Moxisylyte hydrochloride],inactive: -1.98,,inactive: 0.154
CC(=O)Oc1cc(C(C)C)c(OCCN(C)C)cc1C [peptide 6],,inactive: -0.115,
Cc1c(OC(C)C(=O)O)cccc1C(=O)c1ccc(Cl)cc1 (stereo not given),inactive: -0.37,inactive: 0.933,inactive: -0.311
COC(=O)c1cc(OC)c2c(c1-c1c(CO)cc(OC)c3c1OCO3)OCO2,inactive: -0.638,inactive: -0.309,inactive: 0.976
CCCOc1ccc([N+](=O)[O-])cc1NC(C)=O,inactive: -1.88,inactive: 0.245,inactive: 1.76
"NCC1(CN)CCCCC1 [1,1-Cyclohexanedimethanamine]",inactive: 0.296,inactive: -0.205,inactive: -0.921
O=c1cnn([C@@H]2O[C@H](CO)[C@@H](O)[C@H]2O)c(=O)[nH]1,inactive: -1.63,inactive: -1.58,inactive: -0.264
CCCCCCCCCCCCCCCCCCCCCCCCCC(=O)N[C@@H](CO[C@H]1O[C@H](CO)[C@H](O)[C@H](O)[C@H]1O)[C@H](O)[C@H](O)CCCCCCCCCCCCCC,inactive: 3.87,inactive: 0.461,inactive: 2.51
CC(C)C[C@H](O)[C@H](O)[C@H](CC1CCCCC1)NC(=O)C(CC(=O)N(CC(=O)N(C)CCc1ccccn1)CC1CCCCC1)Cc1csc(N)n1 (stereo not given in full),inactive: 0.116,inactive: -0.381,inactive: 1.7
NC(=O)N1CCC(CC(=O)N2CCC([C@H]3c4ncc(Br)cc4CCc4cc(Cl)cc(Br)c43)CC2)CC1 [lonafarnib],inactive: -1.06,inactive: -0.236,inactive: 1.07

SMILES,TEAD-luciferase reporter activity (compound concentration: 200 nM),TEAD-luciferase reporter activity (compound concentration: 2 uM),TEAD-luciferase reporter activity (compound concentration: 10 uM)
CCCCN1C[C@H](O)[C@@H](O)[C@H](O)[C@H]1CO [Miglustat],inactive: -1.94,,inactive: -0.674
O=C1c2cccc(-c3ccccc3)c2C(=O)C1c1ccc(Cl)cc1 (stereo not given),inactive: 0.469,inactive: 1.93,inactive: 3.86
CNS(=O)(=O)c1cc(OC)c(OC)c(C(=O)NC[C@@H]2CCCCN2C(=O)OC(C)(C)C)c1,inactive: -0.259,inactive: -0.328,inactive: -0.296
CCOC(=O)C1(Cc2cscn2)CCCN(C(=O)[C@@H](Cc2c[nH]c3ccccc23)NC(=O)C(C)(C)N)C1 (stereo not given in full),inactive: -1.12,inactive: 0.0709,inactive: -0.142
CN/C(=C\[N+](=O)[O-])NCCSCc1ccc(CNC2C3CC4C(C3)C42)o1 (stereo not given),inactive: 0.134,inactive: -0.796,inactive: 0.504
C#C[C@]1(OC(C)=O)CC[C@H]2[C@@H]3CCC4=C[C@@H](OC(C)=O)CC[C@@H]4[C@H]3CC[C@@]21C,inactive: -1.63,inactive: -1.31,inactive: -0.795
CC(CC(c1ccccc1)c1ccccc1)NC(C)(C)C (stereo not given) [terodiline],inactive: 4.57,inactive: -0.734,inactive: 2.16
Cc1cc(C)cc(OCC2CNC(=O)O2)c1 (stereo not given) [metaxalone],inactive: -1.02,inactive: -1.92,inactive: -0.931
COc1ccc(S(=O)(=O)N2C(=O)[C@@](c3ccccc3OC)(N3C[C@H](O)C[C@H]3C(=O)N(C)C)c3cc(Cl)ccc32)c(OC)c1,inactive: -0.238,inactive: -0.691,inactive: 0.73
CC(C)CC(=O)Nc1n[nH]c2c1CN(C(=O)C1CCN(C)CC1)C2(C)C,inactive: -2.01,inactive: -2.83,inactive: -2.88
CN(CCC=C1c2ccccc2CCc2ccccc21)C(=O)CCCN [Nortriptyline-GABA],inactive: 2.56,inactive: -1.28,inactive: 0.228
CC(=O)N1Cc2ccccc2CC2(CCCN2CC2CCCC2)C1 (stereo not given),inactive: -1.52,,inactive: -0.0219
C[C@H](N)c1ccc([C@H](O)CNC(C)(C)C)cc1,inactive: 0.849,inactive: 0.807,inactive: -1.6
CC(=O)N[C@@H](CC(C)C)C(=O)N1CCC[C@H]1C(=O)N[C@@H](Cc1ccccc1)C(=O)N[C@@H](Cc1ccccc1)C(=O)N[C@@H](CC(=O)O)C(N)=O,inactive: -0.877,inactive: -0.0497,inactive: -0.24
CC1=C(C(=O)O)N2C(=O)[C@@H](NC(=O)[C@H](N)c3ccccc3)C2SC1 (stereo not given in full) [cefalexin HCl monohydrate],inactive: -1.37,inactive: 1.56,inactive: -0.734
CC(C)(O)Cn1cnc2c(N)nc3ccccc3c21,inactive: -1.47,inactive: 0.593,inactive: 0.191
Clc1ccccc1CN1CCc2sccc2C1 [Ticlopidine Hydrochloride],inactive: -1.61,,inactive: -1.88
Clc1ccccc1CN1CCc2sccc2C1 [ticlopidine],,inactive: -0.196,
CC(C)CCC[C@@H](C)[C@H]1CC[C@H]2[C@@H]3CC/C(=N\O)[C@](C)(CCCO)[C@H]3CC[C@]12C,inactive: 2.48,inactive: -2.04,inactive: -0.34
O=C1CCC(NC(=O)Cc2ccccc2)C(=O)N1 (stereo not given) [antineoplaston A10],inactive: 1.07,inactive: -1.3,inactive: -0.283
COc1cccc(-c2ccc(CN3CCCC3C(=O)NCc3ccc4c(c3)OCO4)cc2)c1 (stereo not given),inactive: 3.26,,inactive: 1.58
O=C1c2ccccc2CN1C1CCN(Cc2ccc(F)cc2)CC1,inactive: -0.177,,inactive: 2.01
CN(C)c1nc(N(C)C)nc(N(C)C)n1 [altretamine],,inactive: 2.24,
CN(C)c1nc(N(C)C)nc(N(C)C)n1,inactive: -1.82,,inactive: 2.83
O=C(O)c1ccc(NC2OC(CO)C(O)C(O)C2O)cc1 (stereo not given),inactive: -0.418,inactive: 0.663,inactive: -1.12
CCOC(=O)CN1CCN(C[C@@H]2CN(c3ccc(C(=N)NC(=O)OC)cc3)C(=O)O2)CC1 [Gantofiban],inactive: -1.32,inactive: -1.15,inactive: -0.269

# In a second layout: results already given
SMILES	TEAD-luciferase reporter activity (compound concentration: 200 nM)	TEAD-luciferase reporter activity (compound concentration: 2 uM)	TEAD-luciferase reporter activity (compound concentration: 10 uM)
FC(F)(F)C(C(F)(F)F)(C(F)(F)F)C1(F)C(F)(F)C(F)(F)C(F)(F)C(F)(F)C1(F)F [Oxycyte]	inactive: -1.4	inactive: -0.0639	inactive: 0.928
O=S(=O)(c1nc(-c2ccccc2)c(-c2cccc(F)c2)[nH]1)C(F)(F)C(F)F	inactive: -1.3	inactive: -2.06	inactive: 0.236
O=C1CCCN1c1ccc(Oc2ccc3c(c2)CCN(C2CCC2)CC3)nc1	inactive: -0.54	inactive: -0.822	inactive: 1.36
CCc1nc2c(C)cc(-c3cn4c(n3)CCCC4)cc2n1Cc1ccc(-c2ccccc2C(=O)O)cc1	inactive: -1.88	inactive: -1.54	inactive: -0.606
